# The other results are listed elsewhere or left out. These are raw signals, not scaled to a control.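 First-pass screen: polymyxin B was added at a level that permeabilizes the Salmonella outer membrane while sparing the inner membrane. DMSO wells, with and without polymyxin B, defined maximum growth. Because plates differed from one another, each plate's data were ranked separately and the compounds with the lowest OD600 were carried forward as hits.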
# Test system: Salmonella enterica serovar Typhimurium SL1344
# Assay: bacterial growth OD600 after 18 h with compound and polymyxin B; higher = more bacterial growth (less inhibition)
# Conditions: 50 µM, Mueller-Hinton broth
smiles,measurement,setting,value
O=C(NC1CCCC1)c1ccc(N2CCC(NCCCn3ncc4ccccc43)CC2)cc1,bacterial growth OD600,polymyxin B 0.75 µg/mL,0.779
O=C(c1ccc(F)cc1Cl)N1CCCC(N2CCN(c3ccc(F)cc3)CC2)C1 (centres undefined),bacterial growth OD600,polymyxin B 1 µg/mL,1.04
CC(C)c1csc(CN2CCCC(CNC(=O)c3n[nH]c4ccccc34)C2)n1 (centres undefined),bacterial growth OD600,polymyxin B 1 µg/mL,0.871
Cc1cccc(CN2CCC(C(=O)Nc3cccc(-c4nnc(C)s4)c3)CC2)n1,bacterial growth OD600,polymyxin B 0.75 µg/mL,0.821
O=C(C1CC1)N1CCC(Oc2cccc(C(=O)N3CCCCO3)c2)CC1,bacterial growth OD600,polymyxin B 1 µg/mL,1.25
CCCc1cc(C(=O)NCc2nc(-c3ccc(NC(=O)c4ccc(COC)o4)cc3)oc2C)n(C)n1,bacterial growth OD600,polymyxin B 0.75 µg/mL,0.82
O=C(CC1(c2cccc(C(F)(F)F)c2)CC(=O)N(C2CC2)C1=O)N(CC1CC1)CC1CCCO1 (centres undefined),bacterial growth OD600,polymyxin B 0.75 µg/mL,0.133
O=C(CCn1cncn1)N1CCC(C2CCN(Cc3cccc(F)c3F)CC2)C1 (centres undefined),bacterial growth OD600,polymyxin B 0.75 µg/mL,0.833
CCN(Cc1nccn1C)c1ccc(-c2nc(COC)no2)cn1,bacterial growth OD600,polymyxin B 0.75 µg/mL,0.867
C=CCO[C@H]1[C@H](NC(=O)COC)c2ccccc2C12CCN(Cc1ccc(F)c(OC)c1)CC2,bacterial growth OD600,polymyxin B 0.75 µg/mL,1.03
Nc1ncc(CN(CCN2CCCCC2)CC2CCCN(C3CCCC3)C2)cn1 (centres undefined),bacterial growth OD600,polymyxin B 0.75 µg/mL,0.871
COc1ccc(F)c(CN2CCCC3(CCN(C(=O)C4CCC4)C3)C2=O)c1 (centres undefined),bacterial growth OD600,polymyxin B 0.75 µg/mL,0.775
C=CCCC(=O)N1CCCC(C(=O)Nc2ccc(-c3cccc(OC)c3)cc2)C1 (centres undefined),bacterial growth OD600,polymyxin B 1 µg/mL,0.758
O=C(COc1ccc(Cl)cc1)NCc1cccnc1N1CCOCC1,bacterial growth OD600,polymyxin B 1 µg/mL,0.924
CC#CC(=O)NC1CC(=O)N(Cc2cccc(F)c2)C1 (centres undefined),bacterial growth OD600,polymyxin B 1 µg/mL,0.863
CCCCN(C)Cc1cnc(S(=O)(=O)CCC(C)C)n1CCOC,bacterial growth OD600,polymyxin B 1 µg/mL,0.987
Fc1ccccc1-c1n[nH]c2c1CN(Cc1cccc3ncccc13)CC2,bacterial growth OD600,polymyxin B 0.75 µg/mL,0.834
CN(CC1CCCN(CCc2ccc(Cl)cc2)C1)C(=O)Cn1cnnn1 (centres undefined),bacterial growth OD600,polymyxin B 0.75 µg/mL,0.859
CC(NC(=O)CCc1ccccc1)c1nnc2n1CCN(Cc1ccc3c(c1)Cc1ccccc1-3)CC2 (centres undefined),bacterial growth OD600,polymyxin B 0.75 µg/mL,0.008
O=C(c1ccccc1OC1CCN(C2CCC2)CC1)N1CCCCC1,bacterial growth OD600,polymyxin B 1 µg/mL,0.903
CN(Cc1ccc2nsnc2c1)C1CCCN(CCc2ccccc2)C1 (centres undefined),bacterial growth OD600,polymyxin B 1 µg/mL,1.03
O=C(NCCCn1cccn1)c1ccccc1OC1CCN(C(=O)c2cccnc2)CC1,bacterial growth OD600,polymyxin B 0.75 µg/mL,1.02
CC(C)(C)NC(=O)C1CCCN(C2CCN(C3Cc4ccccc4C3)CC2)C1 (centres undefined),bacterial growth OD600,polymyxin B 0.75 µg/mL,0.785
COc1ccc(/C=C/C(=O)NCC2CCC3(CCN(CCCc4ccccc4)CC3)O2)cc1OC (centres undefined),bacterial growth OD600,polymyxin B 0.75 µg/mL,0.842
COc1ccccc1CCN1CCCC(CN(C)C(=O)c2cc(C(C)C)nn2C)C1 (centres undefined),bacterial growth OD600,polymyxin B 1 µg/mL,0.821
CCOc1ccc2nc(N3CCCC3C(=O)N3CCCOc4c(cccc4OC)C3)nc(C)c2c1 (centres undefined),bacterial growth OD600,polymyxin B 0.75 µg/mL,0.797
COCCN1CCCC2(CCN(C(=O)c3ccc(F)cc3)C2)C1=O (centres undefined),bacterial growth OD600,polymyxin B 1 µg/mL,0.858
CCn1ccnc1[C@@H]1C[C@H]2CN(Cc3ccccc3C)C(=O)[C@]23CCCN13,bacterial growth OD600,polymyxin B 0.75 µg/mL,0.807
CCc1ccc(CN2CCC(CCC(=O)NCC3CCCN3CC)CC2)o1 (centres undefined),bacterial growth OD600,polymyxin B 0.75 µg/mL,0.772

# Part of the list above, with bars between the fields:
smiles | measurement | setting | value
O=C(CCn1cncn1)N1CCC(C2CCN(Cc3cccc(F)c3F)CC2)C1 (centres undefined) | bacterial growth OD600 | polymyxin B 0.75 µg/mL | 0.833
O=C(c1ccccc1OC1CCN(C2CCC2)CC1)N1CCCCC1 | bacterial growth OD600 | polymyxin B 1 µg/mL | 0.903
COc1ccccc1CCN1CCCC(CN(C)C(=O)c2cc(C(C)C)nn2C)C1 (centres undefined) | bacterial growth OD600 | polymyxin B 1 µg/mL | 0.821
CCOc1ccc2nc(N3CCCC3C(=O)N3CCCOc4c(cccc4OC)C3)nc(C)c2c1 (centres undefined) | bacterial growth OD600 | polymyxin B 0.75 µg/mL | 0.797
CCn1ccnc1[C@@H]1C[C@H]2CN(Cc3ccccc3C)C(=O)[C@]23CCCN13 | bacterial growth OD600 | polymyxin B 0.75 µg/mL | 0.807
